Measured values from US20200057058A1.
No constants are given. Whether binding was seen depends on the method and setting. Binding calls can cover weak binding; strength is not graded here.

How the values were obtained:
[1] = biological target: monomeric streptavidin variant mSA2; experiment: fluorescent binding assay, labeled mSA2 on monolayer
[2] = biological target: monomeric streptavidin variant mSA2; experiment: fluorescent binding assay, labeled mSA2 in 50% urine on the monolayer, 4 h exposure
[3] = biological target: monomeric streptavidin variant mSA2; experiment: fluorescent binding assay: labeled mSA2 in PBS applied to the protein monolayer, rinsed, fluorescence microscopy
[4] = biological target: monomeric streptavidin variant mSA2; experiment: fluorescent binding assay, labeled mSA2 in 50% blood serum on the monolayer, 4 h exposure
[5] = biological target: monomeric streptavidin variant mSA2; experiment: fluorescent binding assay, labeled mSA2 in PBS on the monolayer, 4 h exposure
[6] = biological target: monomeric streptavidin variant mSA2; experiment: fluorescent time-course assay, labeled mSA2 on monolayer
[7] = biological target: monomeric streptavidin variant mSA2; experiment: fluorescent diffusion assay: monolayer exposed to 800 nM labeled mSA2 for 0.5-8 h, rinsed

binding [1]: binds
binding [2]: binds
binding [3]: binds
binding [4]: binds
binding [5]: binds
binding [6]: binds
binding [7]: binds
B1: rcSso7d.SA monolayer (designed binder)
chain: MGSIHHHHHHSSGLVPRGSHMCATVKFTYQGEEKQVDISKIKIVARDGQYIDFKYDEGGGAYGYGWVSEKDAPKELLQMLEKQ
modifications: EDC/NHS-activated protein coupled to an amine-functionalized silicon wafer
